Results are given in words; binding and its absence hold for the method and conditions named. In cells and extracts the contact can be indirect. A yes stands for co-enrichment or nearness to the bait. Other partners may have been found. For some assays here: A no says only that the protein was not detected with the bait. For some assays here: Sequences can lack the tags named with a protein. Blank lines part the entries; values can stand above or below the molecule they belong to.
Columns and labels:
[1] = target: Med17-HA (S. cerevisiae (endogenous in S288c)) (UniProt P32569); test: affinity purification with mass spectrometry; purification-after-mixing (PAM): Med17-HA cells and differently labelled wild type cells mixed before cryogrinding and CoIP, same conditions as the MAP experiment, 2 h CoIP
[2] = target: T1, Med13-HA (S. cerevisiae (endogenous in S288c)) (UniProt P38931); test: affinity purification with mass spectrometry; CoIP of Med13-HA (CKM subunit) under the same conditions as for Med17-HA in the MAP experiment
T1 sequence: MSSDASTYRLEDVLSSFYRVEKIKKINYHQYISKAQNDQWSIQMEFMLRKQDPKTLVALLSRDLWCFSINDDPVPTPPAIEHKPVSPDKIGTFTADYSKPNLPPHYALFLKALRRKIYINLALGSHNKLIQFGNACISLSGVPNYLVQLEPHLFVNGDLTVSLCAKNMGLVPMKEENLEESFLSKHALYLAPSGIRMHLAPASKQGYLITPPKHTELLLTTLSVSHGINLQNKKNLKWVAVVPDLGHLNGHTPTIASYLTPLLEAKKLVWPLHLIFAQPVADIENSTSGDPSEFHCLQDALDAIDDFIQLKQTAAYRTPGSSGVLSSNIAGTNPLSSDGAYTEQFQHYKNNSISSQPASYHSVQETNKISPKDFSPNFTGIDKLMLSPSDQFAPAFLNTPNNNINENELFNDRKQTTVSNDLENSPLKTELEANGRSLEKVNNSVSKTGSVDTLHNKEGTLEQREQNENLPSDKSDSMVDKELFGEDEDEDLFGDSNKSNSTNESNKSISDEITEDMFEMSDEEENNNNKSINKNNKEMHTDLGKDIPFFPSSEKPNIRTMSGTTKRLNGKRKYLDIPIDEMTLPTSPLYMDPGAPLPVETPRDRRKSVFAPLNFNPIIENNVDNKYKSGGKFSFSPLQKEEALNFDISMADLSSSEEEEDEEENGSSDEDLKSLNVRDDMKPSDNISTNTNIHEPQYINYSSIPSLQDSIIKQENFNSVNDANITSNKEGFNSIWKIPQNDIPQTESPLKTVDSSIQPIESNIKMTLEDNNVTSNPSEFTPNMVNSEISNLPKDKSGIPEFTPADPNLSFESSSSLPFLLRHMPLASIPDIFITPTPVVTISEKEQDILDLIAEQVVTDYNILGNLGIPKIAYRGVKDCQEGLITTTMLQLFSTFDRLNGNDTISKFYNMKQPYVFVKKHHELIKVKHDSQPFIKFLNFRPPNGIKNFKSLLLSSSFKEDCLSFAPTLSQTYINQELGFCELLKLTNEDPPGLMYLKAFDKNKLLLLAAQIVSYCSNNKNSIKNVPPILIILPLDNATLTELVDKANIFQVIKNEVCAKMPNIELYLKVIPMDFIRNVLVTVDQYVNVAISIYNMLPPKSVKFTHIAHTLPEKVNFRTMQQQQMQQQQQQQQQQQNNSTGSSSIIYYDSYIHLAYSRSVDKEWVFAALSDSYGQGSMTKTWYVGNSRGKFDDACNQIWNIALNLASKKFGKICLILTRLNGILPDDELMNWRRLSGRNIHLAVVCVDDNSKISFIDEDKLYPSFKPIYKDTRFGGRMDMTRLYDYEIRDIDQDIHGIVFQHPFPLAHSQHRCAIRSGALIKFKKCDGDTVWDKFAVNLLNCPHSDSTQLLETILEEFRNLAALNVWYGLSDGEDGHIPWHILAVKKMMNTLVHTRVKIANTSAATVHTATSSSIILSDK

Protein sequences, listed by entry. Tags and fused reporters are not part of them.
UniProt P32569: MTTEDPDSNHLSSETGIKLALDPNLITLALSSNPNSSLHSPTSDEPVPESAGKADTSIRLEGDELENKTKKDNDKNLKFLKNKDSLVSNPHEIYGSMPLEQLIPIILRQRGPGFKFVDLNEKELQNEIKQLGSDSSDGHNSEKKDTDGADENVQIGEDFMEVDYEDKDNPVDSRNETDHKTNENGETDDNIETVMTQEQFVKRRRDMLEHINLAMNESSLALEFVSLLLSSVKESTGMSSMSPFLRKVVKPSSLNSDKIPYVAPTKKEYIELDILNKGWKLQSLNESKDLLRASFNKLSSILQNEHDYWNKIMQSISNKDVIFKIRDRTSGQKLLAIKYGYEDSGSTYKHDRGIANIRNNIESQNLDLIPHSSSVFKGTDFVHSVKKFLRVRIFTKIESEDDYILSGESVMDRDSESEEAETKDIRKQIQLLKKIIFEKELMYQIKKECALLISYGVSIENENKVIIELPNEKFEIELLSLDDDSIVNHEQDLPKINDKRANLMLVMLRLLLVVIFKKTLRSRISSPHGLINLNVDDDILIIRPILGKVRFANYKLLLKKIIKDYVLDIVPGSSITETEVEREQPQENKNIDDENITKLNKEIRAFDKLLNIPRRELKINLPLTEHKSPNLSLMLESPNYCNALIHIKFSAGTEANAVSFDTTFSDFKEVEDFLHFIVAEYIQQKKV
UniProt P19659: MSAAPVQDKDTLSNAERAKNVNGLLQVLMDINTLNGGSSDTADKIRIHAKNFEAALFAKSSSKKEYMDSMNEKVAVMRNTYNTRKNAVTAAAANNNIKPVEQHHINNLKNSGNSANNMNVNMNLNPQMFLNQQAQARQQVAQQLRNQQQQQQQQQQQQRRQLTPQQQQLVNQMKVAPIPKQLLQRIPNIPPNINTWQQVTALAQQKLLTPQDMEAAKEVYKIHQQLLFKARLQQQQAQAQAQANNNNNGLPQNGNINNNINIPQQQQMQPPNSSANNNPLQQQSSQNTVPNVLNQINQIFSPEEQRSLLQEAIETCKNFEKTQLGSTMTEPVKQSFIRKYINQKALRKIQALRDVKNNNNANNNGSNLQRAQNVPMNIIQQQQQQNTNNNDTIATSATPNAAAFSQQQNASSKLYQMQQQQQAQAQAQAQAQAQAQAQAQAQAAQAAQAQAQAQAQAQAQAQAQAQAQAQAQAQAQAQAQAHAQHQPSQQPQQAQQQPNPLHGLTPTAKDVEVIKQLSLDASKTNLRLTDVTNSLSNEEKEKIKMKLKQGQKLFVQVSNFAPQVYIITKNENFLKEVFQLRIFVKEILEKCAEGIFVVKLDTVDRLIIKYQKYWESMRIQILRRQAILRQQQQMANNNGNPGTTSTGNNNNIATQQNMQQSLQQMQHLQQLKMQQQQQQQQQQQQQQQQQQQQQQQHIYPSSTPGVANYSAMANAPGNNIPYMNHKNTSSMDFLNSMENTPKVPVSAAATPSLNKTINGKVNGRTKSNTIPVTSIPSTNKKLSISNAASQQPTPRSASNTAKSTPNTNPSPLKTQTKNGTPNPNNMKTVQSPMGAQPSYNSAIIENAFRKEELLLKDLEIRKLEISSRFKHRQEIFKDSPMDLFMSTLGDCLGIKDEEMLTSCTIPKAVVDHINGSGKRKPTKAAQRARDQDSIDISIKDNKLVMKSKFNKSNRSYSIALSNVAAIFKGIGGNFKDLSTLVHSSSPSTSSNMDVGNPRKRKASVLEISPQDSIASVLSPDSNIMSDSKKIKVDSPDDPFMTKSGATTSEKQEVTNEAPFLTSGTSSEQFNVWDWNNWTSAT
UniProt Q12124: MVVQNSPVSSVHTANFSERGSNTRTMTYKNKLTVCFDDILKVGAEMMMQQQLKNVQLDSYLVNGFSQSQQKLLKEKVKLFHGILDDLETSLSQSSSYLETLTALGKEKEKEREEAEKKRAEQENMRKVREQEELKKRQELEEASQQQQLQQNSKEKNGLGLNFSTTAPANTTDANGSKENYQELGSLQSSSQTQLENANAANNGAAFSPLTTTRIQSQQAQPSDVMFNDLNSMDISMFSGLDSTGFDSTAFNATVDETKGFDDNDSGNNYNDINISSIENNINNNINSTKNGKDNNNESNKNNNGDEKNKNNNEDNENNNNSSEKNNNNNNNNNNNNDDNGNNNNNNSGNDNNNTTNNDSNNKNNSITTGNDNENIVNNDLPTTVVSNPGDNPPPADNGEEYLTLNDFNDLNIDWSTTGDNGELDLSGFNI
UniProt P32259: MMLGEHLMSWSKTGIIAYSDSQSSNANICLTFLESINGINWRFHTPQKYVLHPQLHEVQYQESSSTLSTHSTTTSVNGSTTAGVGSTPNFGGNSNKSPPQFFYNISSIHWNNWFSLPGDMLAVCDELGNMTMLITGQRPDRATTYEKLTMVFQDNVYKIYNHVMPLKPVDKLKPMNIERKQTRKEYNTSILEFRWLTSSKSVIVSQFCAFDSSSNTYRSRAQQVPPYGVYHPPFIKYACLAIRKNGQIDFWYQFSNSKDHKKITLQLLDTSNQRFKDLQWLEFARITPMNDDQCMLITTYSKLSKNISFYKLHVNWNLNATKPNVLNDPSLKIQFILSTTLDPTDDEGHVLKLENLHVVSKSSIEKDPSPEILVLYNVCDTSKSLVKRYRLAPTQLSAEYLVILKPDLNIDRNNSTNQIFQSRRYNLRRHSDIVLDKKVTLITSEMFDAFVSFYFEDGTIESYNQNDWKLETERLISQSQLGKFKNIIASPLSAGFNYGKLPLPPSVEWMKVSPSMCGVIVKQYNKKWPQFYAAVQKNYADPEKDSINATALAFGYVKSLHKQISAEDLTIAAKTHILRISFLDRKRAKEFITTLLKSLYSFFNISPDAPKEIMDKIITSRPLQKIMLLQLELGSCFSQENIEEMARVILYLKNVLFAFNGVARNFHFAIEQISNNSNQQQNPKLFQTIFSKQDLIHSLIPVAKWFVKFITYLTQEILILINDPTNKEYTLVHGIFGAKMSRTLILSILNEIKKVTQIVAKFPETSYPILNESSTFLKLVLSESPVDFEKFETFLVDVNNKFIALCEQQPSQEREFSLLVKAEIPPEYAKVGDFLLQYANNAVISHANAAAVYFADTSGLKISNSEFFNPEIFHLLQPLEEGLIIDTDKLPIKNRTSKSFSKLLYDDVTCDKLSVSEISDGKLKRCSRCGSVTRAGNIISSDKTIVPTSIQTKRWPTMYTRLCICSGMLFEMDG

[3] = target: Med17-HA (S. cerevisiae (endogenous in S288c)) (UniProt P32569); test: affinity purification with mass spectrometry; CoIP of Med17-HA on anti-HA magnetic beads from cryoground yeast lysate, 2 h at 4 °C; 20 mM HEPES pH 7.5, 300 mM KOAc, 10% glycerol, 0.01% NP-40, 6 mM MnSO4, 1 mM DTT, Cyanase nuclease; parallel control CoIP from 15N-labelled wild type cells, mixing after purification (MAP); GeLC-MS/MS, three biological replicates

Molecule: Med15 (from UniProt P19659 1-1081)
- binding [1]: binds

Molecule: Med2 (from UniProt Q12124 1-431)
- binding [1]: binds

Now from value to molecule:

- binding [1]: binds
Molecule: Med16 (from UniProt P32259 1-974)

- binding [2]: no binding
- binding [3]: binds
B1: Tfs2 (protein, UniProt P07273 1-309)
chain: MDSKEVLVHVKNLEKNKSNDAAVLEILHVLDKEFVPTEKLLRETKVGVEVNKFKKSTNVEISKLVKKMISSWKDAINKNKRSRQAQQHHQDHAPGNAEDKTTVGESVNGVQQPASSQSDAMKQDKYVSTKPRNSKNDGVDTAIYHHKLRDQVLKALYDVLAKESEHPPQSILHTAKAIESEMNKVNNCDTNEAAYKARYRIIYSNVISKNNPDLKHKIANGDITPEFLATCDAKDLAPAPLKQKIEEIAKQNLYNAQGATIERSVTDRFTCGKCKEKKVSYYQLQTRSADEPLTTFCTCEACGNRWKFS

From publication PMC5327418
